Results are given in words; binding and its absence hold for the method and conditions named. Binding seen in cells or lysates may run through a third protein. A yes stands for co-enrichment or nearness to the bait. Other partners may have been found.
Target: schizont egress antigen-1 with a C-terminal HA3 epitope tag (SEA1-HA3) (P. falciparum)
Assay: affinity purification with mass spectrometry; RIPA lysates of saponin-released early schizonts (~40 h) of DMSO- or RAP-treated (SEA1-null control) SEA1-HA:loxP parasites, loaded in triplicate on anti-HA magnetic beads, 4°C, 1 h; eluted in SDS sample buffer; in-gel tryptic digestion, Orbitrap, MaxQuant iBAQ

Protein sequences, listed by entry. Tags and fused reporters are not part of them.
UniProt Q9U0K8: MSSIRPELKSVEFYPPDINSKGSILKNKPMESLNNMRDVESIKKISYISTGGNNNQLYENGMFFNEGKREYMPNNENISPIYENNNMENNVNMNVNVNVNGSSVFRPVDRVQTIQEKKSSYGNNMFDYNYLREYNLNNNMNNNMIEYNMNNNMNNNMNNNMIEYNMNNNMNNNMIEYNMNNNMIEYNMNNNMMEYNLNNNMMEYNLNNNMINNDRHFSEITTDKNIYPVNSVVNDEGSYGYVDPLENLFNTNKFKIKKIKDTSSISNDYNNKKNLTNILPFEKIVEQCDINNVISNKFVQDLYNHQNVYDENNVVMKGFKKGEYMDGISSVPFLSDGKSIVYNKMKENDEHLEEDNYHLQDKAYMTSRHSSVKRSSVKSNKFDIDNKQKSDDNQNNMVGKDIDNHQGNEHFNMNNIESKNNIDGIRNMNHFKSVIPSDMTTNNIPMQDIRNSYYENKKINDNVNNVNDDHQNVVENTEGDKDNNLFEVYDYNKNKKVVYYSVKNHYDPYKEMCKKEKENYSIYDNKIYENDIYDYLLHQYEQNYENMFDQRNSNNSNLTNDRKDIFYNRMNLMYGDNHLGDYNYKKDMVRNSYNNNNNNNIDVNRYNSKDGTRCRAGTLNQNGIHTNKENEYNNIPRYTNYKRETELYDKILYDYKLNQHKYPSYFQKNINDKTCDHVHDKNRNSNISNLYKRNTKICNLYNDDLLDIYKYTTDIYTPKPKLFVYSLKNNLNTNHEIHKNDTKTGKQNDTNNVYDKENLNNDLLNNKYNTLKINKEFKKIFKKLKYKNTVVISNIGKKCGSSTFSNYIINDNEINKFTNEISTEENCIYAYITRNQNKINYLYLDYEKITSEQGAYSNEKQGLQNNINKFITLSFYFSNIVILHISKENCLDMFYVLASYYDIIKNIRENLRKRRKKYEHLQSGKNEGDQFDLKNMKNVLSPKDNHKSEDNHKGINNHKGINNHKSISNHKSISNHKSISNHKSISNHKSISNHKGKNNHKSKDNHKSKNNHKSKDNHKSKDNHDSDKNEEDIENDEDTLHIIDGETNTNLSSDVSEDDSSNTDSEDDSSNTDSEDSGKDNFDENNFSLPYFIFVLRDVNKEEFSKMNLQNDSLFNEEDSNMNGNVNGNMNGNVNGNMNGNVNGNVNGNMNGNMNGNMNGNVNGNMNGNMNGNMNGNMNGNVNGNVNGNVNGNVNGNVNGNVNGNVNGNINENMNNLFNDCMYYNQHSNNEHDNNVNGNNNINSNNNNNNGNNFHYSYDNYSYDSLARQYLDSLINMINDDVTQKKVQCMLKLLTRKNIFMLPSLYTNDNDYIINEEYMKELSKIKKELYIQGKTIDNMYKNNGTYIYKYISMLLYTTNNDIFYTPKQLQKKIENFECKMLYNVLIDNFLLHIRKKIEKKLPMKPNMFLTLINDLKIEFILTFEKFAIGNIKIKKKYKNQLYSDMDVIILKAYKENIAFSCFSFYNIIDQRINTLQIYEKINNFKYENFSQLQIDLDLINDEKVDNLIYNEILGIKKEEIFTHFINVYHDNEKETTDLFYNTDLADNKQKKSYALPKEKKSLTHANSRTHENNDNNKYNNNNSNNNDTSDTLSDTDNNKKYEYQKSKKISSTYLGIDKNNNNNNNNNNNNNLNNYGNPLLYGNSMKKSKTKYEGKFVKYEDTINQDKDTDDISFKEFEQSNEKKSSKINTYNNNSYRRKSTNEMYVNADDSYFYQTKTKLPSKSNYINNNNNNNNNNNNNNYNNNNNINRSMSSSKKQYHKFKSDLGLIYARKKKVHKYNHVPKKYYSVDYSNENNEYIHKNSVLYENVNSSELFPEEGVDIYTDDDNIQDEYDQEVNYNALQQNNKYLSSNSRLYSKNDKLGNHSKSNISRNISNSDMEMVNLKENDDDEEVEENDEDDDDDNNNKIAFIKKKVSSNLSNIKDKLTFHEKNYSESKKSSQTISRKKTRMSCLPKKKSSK

binding: binds
Substance: P. falciparum coordinator of nascent cell detachment (CINCH) (from UniProt Q9U0K8 1-1960)
